# In the supplement of paper PMC3334620:
# The full ranking holds about 33,000 sequences; the median of “E-score (-0.5 to 0.5)” is about -0.016, and the highest 2% start at about 0.3. This is one part of the list.
# Molecular target: T1, Yer184c (UniProt P39961)
# T1 sequence: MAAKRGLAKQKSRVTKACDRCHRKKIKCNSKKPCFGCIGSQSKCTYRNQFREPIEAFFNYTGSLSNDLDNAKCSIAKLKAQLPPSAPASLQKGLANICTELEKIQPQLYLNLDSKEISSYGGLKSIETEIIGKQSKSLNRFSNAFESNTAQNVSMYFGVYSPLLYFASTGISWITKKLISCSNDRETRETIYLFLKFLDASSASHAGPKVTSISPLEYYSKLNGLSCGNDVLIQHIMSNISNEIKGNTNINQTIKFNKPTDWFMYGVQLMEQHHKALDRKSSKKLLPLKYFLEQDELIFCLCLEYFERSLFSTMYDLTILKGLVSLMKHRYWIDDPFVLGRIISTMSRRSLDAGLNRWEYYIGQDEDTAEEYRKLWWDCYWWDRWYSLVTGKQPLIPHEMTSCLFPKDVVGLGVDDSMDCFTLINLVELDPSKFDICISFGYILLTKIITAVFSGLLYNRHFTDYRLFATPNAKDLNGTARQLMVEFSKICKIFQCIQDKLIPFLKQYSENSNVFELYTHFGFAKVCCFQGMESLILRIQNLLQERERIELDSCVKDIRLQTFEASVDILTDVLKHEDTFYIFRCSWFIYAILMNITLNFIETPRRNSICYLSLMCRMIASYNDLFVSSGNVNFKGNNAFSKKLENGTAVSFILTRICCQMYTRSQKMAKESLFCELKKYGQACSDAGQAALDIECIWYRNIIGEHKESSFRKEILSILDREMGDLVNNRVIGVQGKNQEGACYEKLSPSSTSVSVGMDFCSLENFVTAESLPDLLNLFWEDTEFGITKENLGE
# Test: PBM E-score (8-mer binding enrichment) (E-score (-0.5 to 0.5)); higher = stronger / more preferred TF binding
# Conditions: protein concentration: 100 nM; construct: GST-full length
# Outline: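 Using PURExpress in vitro transcription/translation, GST-tagged yeast transcription factors were made in full-length or DNA-binding-domain form. These were applied at about 100-200 nM to double-stranded universal all-10-mer Agilent arrays, and bound protein was detected with fluorescent anti-GST. Scans were normalised with masliner before the Universal PBM Analysis Suite assigned E-scores to ungapped eight-base words pooled with their reverse complements.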
row,Sequence,PBM E-score
1,AGACTCGG,-0.0794
2,CTGCCCAC,-0.3
3,GCATAAGC,-0.0645
4,CAACATTA,0.0137
5,ATACCAAG,0.105
6,ACCACTCT,-0.199
7,ACGTCGAC,0.024
8,AGTCGGTC,-0.0845
9,AATGTTAC,0.0997
10,CGGTCTTA,0.112
11,AGCTTCTC,-0.158
12,GGTGGCGA,-0.284
13,CACATACC,-0.0268
14,GAACTTAC,0.0957
15,GTCACGAA,0.0687
16,CGGACAAA,0.353
17,AGCAAAAT,0.215
18,CGTGGGCC,-0.00122
19,CTGGACGA,-0.33
20,AAAACGGC,0.213
21,CGGAACAA,0.39
22,CTCTGGCA,-0.235
23,CTTTTACC,0.163
24,AATCAGCC,-0.117
25,TTCTTCAA,0.0435

# 5 records drawn at random from the list so far:
row,Sequence,PBM E-score
15,GTCACGAA,0.0687
16,CGGACAAA,0.353
18,CGTGGGCC,-0.00122
23,CTTTTACC,0.163
13,CACATACC,-0.0268

# Four consecutive entries from above, for reference:
row,Sequence,PBM E-score
6,ACCACTCT,-0.199
7,ACGTCGAC,0.024
8,AGTCGGTC,-0.0845
9,AATGTTAC,0.0997

# Remaining list, next part:

row,Sequence,PBM E-score
1,TAAGATAA,-0.00611
2,CTGTTGTC,0.0854
3,ATCTTGAA,0.13
4,AGGGTACA,-0.178
5,ACAGGGTC,-0.22
6,CGTCTTAA,0.111
7,GTTTATGA,0.147
8,CGATGTGA,-0.0857
9,ATACCTGG,-0.365
10,CAGTGAGA,-0.0108
11,TCCAAACA,0.0813
12,CGCTTTTC,-0.0353
13,GACAAGAC,0.0209
14,AACGTTGT,0.046
15,CGAAGACG,-0.0963
16,CATACTTC,-0.0518
17,CTTCCTTC,-0.124
18,AGAAAGAT,-0.0369
19,TGCGGCAA,0.0333
20,GTAACCAC,-0.321
21,AAGGTGTC,-0.0419
22,ACGGTAGT,0.0307
23,AATAGGGG,-0.158
24,CGCAGGAG,-0.149
25,GCCCACAC,-0.0207

row,Sequence,PBM E-score
1,CTATGCTC,-0.278
2,AAACGCTG,-0.124
3,ATTAGGGA,-0.135
4,ATATCATG,-0.099
5,CCTTCTAA,-0.136
6,CGAATACA,0.00165
7,CCTAGGGC,-0.155
8,ATGTGCAG,-0.109
9,ATTATTAC,0.0952
10,CATGAATG,-0.0649
11,GCTGGCTA,-0.26
12,CCAGCGGG,0.134
13,ATATGTAG,-0.0556
14,AAAACACG,0.141
15,ATGCAGAA,0.0488
16,GCAGTAAA,0.0245
17,AGCTTAAC,0.0281
18,AGTTTTCC,0.254
19,CACATGCC,0.00938
20,ACTCGCAT,-0.0528
21,CTTGGGGA,-0.0684
22,CCGTAAGG,-0.115
23,GTTAGATA,0.0944
24,TGACAACA,0.097
25,ACTAGGCC,-0.235

row,Sequence,PBM E-score
1,AGTAAAGG,-0.0145
2,AGAGGTGG,-0.147
3,CACGCGAG,0.103
4,GAGCAGAC,-0.176
5,GGTGACGA,-0.0706
6,CAGCTCCC,-0.248
7,GAACCTCC,-0.0558
8,ATTAAACA,0.15
9,AATATCTA,0.0259
10,GGAACCTA,-0.0284
11,ACTGAATG,0.0297
12,CGCCTACG,-0.178
13,TGACCAAA,0.0847
14,AATAATCT,0.111
15,ATTAGGCG,0.0255
16,ATGAACGA,-0.0158
17,CACCTCAA,0.00761
18,ATGACATC,0.06
19,CCCTAGGG,-0.235
20,CTTGCCAA,0.0268
21,TTCAGGAA,0.0272
22,AAAGACCA,-0.239
23,TGGATACA,-0.221
24,AAAGTAAG,0.0454
25,CATCGGGC,-0.109

row,Sequence,PBM E-score
1,ACGACTAA,-0.115
2,GGCGGACC,0.0558
3,CCCGTTGA,-0.0292
4,GCCAGCAA,-0.118
5,CTAAACAC,-0.0565
6,AGGGATCG,-0.127
7,CACCTCAG,-0.236
8,CAAGGCCA,-0.168
9,CGTGAGGC,-0.0854
10,GGCGGGAA,0.0413
11,ACGACTAT,-0.0269
12,CTCATCCC,-0.179
13,CAGATTGC,-0.0216
14,ACCGCCCT,-0.201
15,CATCGATA,0.00602
16,CGCCGACG,0.187
17,ACACCCCC,-0.313
18,GTGGGAAC,-0.16
19,GGCGCCAC,-0.114
20,CAGCTTCC,-0.127
21,CACGGTCG,-0.0578
22,CTGTCTAA,-0.0326
23,TCTAGGCA,0.05
24,TCCAAGCA,-0.256
25,GATTCCGC,0.0917

row,Sequence,PBM E-score
1,ATCGTAAC,0.178
2,ACGGTGGG,-0.226
3,CGGTACCG,0.32
4,GGCTTTTA,-0.0907
5,AATATGTC,0.072
6,GCTGGTCC,-0.0365
7,CGCGAGGA,-0.0858
8,AAATAAGC,0.0752
9,ACTTGTAA,-0.0878
10,GCCAACTA,-0.132
11,ATTTAGTC,0.133
12,CGAAAAGC,0.0252
13,CCATTCGC,-0.146
14,TGTCGTAA,-0.163
15,CCCGTGTC,0.0588
16,CAGAGGAA,-0.0556
17,ATGGCGCC,-0.0304
18,AGACGGCA,0.15
19,CCGATCCG,0.25
20,TATGTCAA,0.21
21,AATCGCGA,0.00301
22,AAGTCGCA,0.0733
23,CCATAAGC,-0.181
24,ATACCTCG,0.108
25,CCTATCGC,-0.312

row,Sequence,PBM E-score
1,AAGCGGGC,-0.325
2,AGAGCGCC,0.0563
3,AGTACCGA,0.103
4,GCCACAAC,0.0591
5,CCACAGGC,-0.36
6,GACTGATC,-0.12
7,AGCCATCG,-0.189
8,AAGCCCGC,0.128
9,ACGAGCCA,-0.148
10,GATTGACC,-0.124
11,GATTGACA,0.0426
12,AGGGTCTG,-0.252
13,AGTCTAAT,-0.018
14,CAGACCAG,-0.107
15,CCTGTGCA,-0.152
16,AGACATTC,-0.0101
17,CCAAAGAA,0.106
18,CAGCACTG,-0.242
19,GGCAAGGA,0.147
20,CCGGTAAA,0.321
21,AAGAGAGC,-0.143
22,ACTCGACC,0.0322
